Percent effect of library compounds

Chains of the proteins cited; added tags and fusions are not shown. Residues count along the entry.
UniProt Q4DA54, 1-478: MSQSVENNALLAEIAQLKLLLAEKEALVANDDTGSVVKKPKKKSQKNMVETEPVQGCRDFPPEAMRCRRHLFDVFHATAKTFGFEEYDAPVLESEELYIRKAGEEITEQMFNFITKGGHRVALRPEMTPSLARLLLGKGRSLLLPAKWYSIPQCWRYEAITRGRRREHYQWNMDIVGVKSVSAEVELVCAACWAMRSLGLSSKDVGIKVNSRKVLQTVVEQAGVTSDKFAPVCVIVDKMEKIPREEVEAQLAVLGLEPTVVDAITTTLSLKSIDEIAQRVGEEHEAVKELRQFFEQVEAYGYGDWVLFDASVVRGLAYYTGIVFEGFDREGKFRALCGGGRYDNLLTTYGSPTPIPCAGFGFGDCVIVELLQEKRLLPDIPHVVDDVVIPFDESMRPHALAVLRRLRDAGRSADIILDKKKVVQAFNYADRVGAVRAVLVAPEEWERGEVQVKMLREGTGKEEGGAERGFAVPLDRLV
UniProt A4I591, 1-473: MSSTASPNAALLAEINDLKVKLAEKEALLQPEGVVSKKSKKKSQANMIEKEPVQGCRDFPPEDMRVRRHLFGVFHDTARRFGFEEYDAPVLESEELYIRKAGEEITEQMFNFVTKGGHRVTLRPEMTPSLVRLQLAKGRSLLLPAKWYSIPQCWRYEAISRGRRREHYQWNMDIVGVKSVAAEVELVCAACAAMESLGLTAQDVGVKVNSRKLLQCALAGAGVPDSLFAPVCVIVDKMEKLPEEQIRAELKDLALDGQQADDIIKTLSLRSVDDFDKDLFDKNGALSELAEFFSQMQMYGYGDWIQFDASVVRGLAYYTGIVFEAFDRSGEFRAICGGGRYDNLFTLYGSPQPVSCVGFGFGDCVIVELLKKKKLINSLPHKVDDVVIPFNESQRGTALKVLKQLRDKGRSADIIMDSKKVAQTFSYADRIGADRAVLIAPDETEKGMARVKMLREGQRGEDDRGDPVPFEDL

From ChEMBL document CHEMBL3988442, “University of Dundee, Small-Polar-MMV Screening Library” (2021).

A: 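Assay of Toxoplasma gondii numbers, read through their beta-galactosidase reporter with a colour substrate. Compounds at 10 µM. The record gives no direction; the compounds picked for IC50 retests had high values, so higher reads as fewer parasites. About 67,000 compounds were tested under these conditions; 0.38% (about 260) showed 50% or more at least once.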
B: 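Enzyme assay of histidyl-tRNA synthetase; the read-out is not stated. Target: Histidine-tRNA ligase, Trypanosoma cruzi CL Brener (UniProt Q4DA54). Compounds at 30 µM. Higher reads as stronger inhibition (inferred: compounds with an IC50 in retests scored well above the rest). Size under these conditions: about 69,000 compounds, about 31 of them at 50% or above in at least one test.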
C: 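Enzyme assay of histidyl-tRNA synthetase; the read-out is not stated. Target: Histidine-tRNA ligase, Leishmania infantum (UniProt A4I591). Compounds at 30 µM. Higher reads as stronger inhibition (inferred: compounds with an IC50 in retests scored well above the rest). The assay is labelled LdHisRS but filed under L. infantum. Of about 69,000 compounds tested this way, about 410 (0.6%) reached 50% or more in at least one test.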
D: 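Whole-parasite assay of Trypanosoma brucei over 72 hours; the read-out is not stated. Compounds at 30 µM. The record gives no direction; compounds that gave an IC50 in retests scored well above the rest, so higher reads as stronger inhibition. Values scatter widely below zero; nearly all retest evidence comes from the higher of the two concentrations used. About 64,000 compounds were tested under these conditions; 1.5% (about 940) showed 50% or more at least once.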

Each number is a percent effect as filed. The record does not define 0% and 100%; most values in the screen are far below 50% and negative numbers occur (in some assays of this library far below -100). Compounds were drawn at random from those tested, without regard to their results. A dash means the value is not listed here; it may have been measured.

structure | A | B | C | D
O=C1CCSCC(C(=O)N2CCC3(CC2)OCCO3)N1 (stereo not shown) | -9.367 | 1.205 | 17.95 | 6.477
Cc1cccc(CN2CC3(CCN(S(=O)(=O)C4CC4)CC3)OCC2=O)n1.O=C(O)C(F)(F)F | 2.377 | - | - | -34.19
COCc1nc(C(=O)NS(=O)(=O)c2cc(C)ccc2C)cs1 | 0.3912 | 2.053 | 2.778 | -0.2479
Cn1cc(N2CCC3(CCN(C(=O)c4cccn4C)C3)C2=O)cn1 (stereo not shown) | 0.2219 | -1.754 | 11.29 | 3.293
CCCc1nc(C)cc(N2CCC3(CCC(=O)N(C4CC4)C3)CC2)n1 | -5.971 | 1.163 | -42.62 | -0.3298
N#CCCN(CC1CCCO1)C(=O)c1ccsc1 (stereo not shown) | -13.31 | 4.545 | 3.96 | 16.66
CCC(CNc1ncnc2oc(C)nc12)Cc1ccccc1 (stereo not shown) | -4.784 | 3.665 | 9.677 | 10.79
CCN(C)c1ccc(CNC(=O)c2ccc(NC(N)=O)cc2)cc1F | 0.1142 | 7.895 | 17.5 | -24.4
CC(C)(C)[S+]([O-])CCNC(=O)c1csc(NC2CC2)n1 (stereo not shown) | -0.7646 | 0.5952 | -7.527 | -59.41
N#Cc1c(Cl)nsc1NCCN1CCOCC1 | 0.3644 | 4.167 | 2.083 | -
[H][C@@]12CCN(S(C)(=O)=O)[C@]1([H])CC[C@@H](c1nnc(C)o1)O2 | 14.37 | - | - | -19.76
Cc1cc(S(=O)(=O)Nc2cccc(OC(F)F)c2)sc1C(=O)O | 0.1739 | -2.326 | 11.48 | -18.97
CN(Cc1ccco1)C1CCC12CCN(C(=O)C1CCOCC1)CC2 (stereo not shown) | - | 3.883 | 15.53 | -
CC(C)CCc1nc(CN2CCOC(Cn3cncn3)C2)cs1 (stereo not shown) | -12.13 | 10.4 | 16.96 | -22.15
CC(CCc1ccccc1F)C(=O)NS(=O)(=O)N(C)C(C)C (stereo not shown) | 0.7088 | 1.478 | 19.48 | -42.66
NC(=O)COc1cccc(C(=O)Nc2cnc3n2CCCC3)c1 | -4.711 | 4.065 | 18.27 | -21.61
Cc1cc(C)n(CCC2CC(=O)Nc3cc(O)c(C)cc32)n1 (stereo not shown) | 2.488 | 3.896 | 11.67 | -78.96
O=C(NCCN1CCOCC1)NCc1ccc(-n2cccn2)cc1 | 3.811 | 5.946 | 10.96 | -31.37
CCOc1ncnc2c1CCN(c1cc(C(F)(F)F)ncn1)CC2 | 3.695 | 4.478 | 11.11 | -5.208
COCCC1COC2(CCN(C(=O)c3ccncc3)CC2)C1 (stereo not shown) | - | 3.922 | 22 | -
[H][C@]12CC[C@]([H])(CN(C(=O)c3ccccc3)C1)N(C(=O)CN1CCOC1=O)C2 | 9.544 | - | - | 2.074
CCn1c(CN2CCCC2)nnc1C1CCN(Cc2cc(C)no2)CC1 | 4.762 | 0.9901 | 23.29 | -38.81
NS(=O)(=O)N1CCC(C(=O)Nc2cccc(OC(F)F)c2)CC1 | 3.258 | 6.557 | 21.92 | -17.25
Cc1oc(-c2ccco2)nc1CC(=O)NCC(C)(C)N(C)C | - | 4.598 | 4.839 | -3.177
CNc1ncc2c(n1)CN(CCc1ccc(C)cc1)C2=O | -16.2 | 3.125 | 23.46 | 15.56
CN(Cc1nc2c(cnn2C)c(=O)[nH]1)Cc1ccc(F)cc1F | -12.86 | -0.7634 | 12.77 | -5.633
COC(=O)c1ccn(CC(=O)Nc2nn(CC3CC3)c3ccccc23)n1 | 19 | 6.186 | 21.84 | -28.1
COc1cc(N2CCC3(CCCN(C(=O)c4cnccn4)C3)C2)ncn1.O=C(O)C(F)(F)F (stereo not shown) | -0.2875 | - | - | -22.02
CC(C)COc1cncc(NC(CO)c2ccco2)n1 (stereo not shown) | -0.9201 | 5.319 | -4.478 | 20.87
CCOC1COC2(CCN(Cc3ccc(F)cc3)CC2)C1 (stereo not shown) | - | 3.883 | 9.615 | -
Cc1noc(C)c1C(=O)N1CCCC(c2c(C)c(=O)nc3n2CCC3)C1 (stereo not shown) | -5.983 | 5.319 | 17.71 | 0.3439
CCCc1nc(CN2CCCC2Cn2cncn2)cs1 (stereo not shown) | - | -0.7519 | 12.36 | 2.721
CCc1nc(C2CCCN(C(=O)c3ccccc3F)C2)no1 (stereo not shown) | 5.648 | 5.848 | 12.73 | -25.46
O=C(NCCc1ccncc1)[C@H]1CC[C@@H]2[C@@H](CCN2C2CCC2)O1 | - | 0.9804 | 5.714 | -
COc1ncc(C2(O)CCN(Cc3cccc(F)c3F)CC2)c(OC)n1.Cl | -29.85 | - | - | -21.56
CN1CCC(c2cncc(N(C)C)n2)CC1 | -28.75 | 3.191 | 9.375 | 1.483
COc1ccc(C(C(=O)O)N2CCN(C3CCCC3)CC2)cc1C (stereo not shown) | 1.559 | 4.348 | 3.03 | -1.926
COCCC(=O)N1Cc2[nH]nc(COc3cccnc3)c2C1 | 3.273 | 2.151 | 4.425 | -52.91
O=C(c1nn[nH]c1Nc1ccc(Cl)cc1)N1CCSCC1 | 5.968 | -6.14 | 0 | -30.8
CC1(C(=O)NCc2cc(F)cc(F)c2)CCOCC1 | 1.023 | 4.142 | 9.655 | -
O=C(O)C(F)(F)F.O=C(O)C(F)(F)F.[H][C@@]12C[C@H](C(=O)NC3CC3)CN(Cc3cccnc3)[C@]1([H])CCO2 | 4.34 | - | - | -17.32
NC(=O)c1cn[nH]c1C1CCCN1C(=O)c1ccccn1 (stereo not shown) | - | 3.846 | 1.408 | -
CN(CCc1ccccc1)c1cnn(CC(=O)N2CCSCC2)c(=O)c1 | -1.423 | 4.132 | 7.692 | 30
COCCNc1nc2c(c(N3CCn4nc(C)cc4C3)n1)CCNCC2 | 9.319 | 12.31 | 14.29 | -12.08
CC(C)O[C@@H]1CC[C@H]2[C@H]1OCCN2C(=O)c1nn(C)c2ccccc12 | - | 8.889 | 13.21 | -
Cc1cc(C(=O)N2CCn3cnc(COCC4CC4)c3C2)no1 | 8.352 | 7.527 | 11.5 | -56.91
CN(C)CCn1c(=O)oc2ccc(NC(=O)CC(C)(C)C)cc21 | -2.533 | 0.4149 | 37.86 | 16.64
O=C(CC(F)(F)F)N1CCc2[nH]nc(-c3ccc4c(c3)OCO4)c2C1 | -2.036 | 7.609 | 11.84 | -152.9
Cc1cc(Oc2ccccc2)nc(C2CCCCN2)n1 (stereo not shown) | -9.718 | 10.08 | 18.44 | -20.08
O=C(c1cscn1)N1CCC2(CCN(Cc3nccs3)C2)CC1 | -3.604 | 4.972 | 3.008 | -
CCCS(=O)(=O)N1CCOCC2(CCN(c3ccccn3)C2)C1 (stereo not shown) | - | -2.732 | 5.825 | -
Cc1cc(C(=O)NC(CC(C)C)C(=O)Nc2cc[nH]n2)c(C)o1 (stereo not shown) | 16.4 | -1.622 | 13.7 | -3.682
CC(C)=CCN1CCN(C(=O)c2cc(C(C)C)on2)[C@H]2CS(=O)(=O)C[C@H]21 | - | 0 | 11.96 | -
O=C(O)C(F)(F)F.c1ccc(N2CCOC3(CCCN(c4ncccn4)C3)C2)nc1 (stereo not shown) | -12.86 | - | - | -14.32
Cc1n[nH]/c(=N\C(=O)c2c3c(nc4onc(C)c24)CCC3)s1 | - | 7.921 | 26.09 | -5.755
Cc1cnc(C(=O)N2CCc3ncnc(C)c3CC2)cn1 | 12.89 | 8.264 | 11.43 | 54.93
Cc1nc(CNc2ncc(Br)cn2)n[nH]1 | -4.394 | 4.762 | 13.33 | -25.65
CC1=N[C@@]2(CC[C@@H]3CN(C(=O)NCc4cccc(F)c4)C[C@@H]32)C(=O)N1 | - | 9.244 | 10.09 | -
O=C(O)C(F)(F)F.c1cnc(N2CCCC3(COCCN(CC4CC4)C3)C2)nc1 (stereo not shown) | 6.028 | - | - | 20.31
CC(C)Oc1ccccc1CNC(=O)c1[nH]ncc1Br | 14.87 | 4.712 | 18.97 | -3.157
CC(=O)c1cn(CC(=O)N2CCC(O)(CO)CC2)c2ccccc12 | 4.327 | 7.792 | 6.667 | -51.93

For reference, 5 entries once more:

| structure | A | B | C | D |
|---|---|---|---|---|
| `COCCC(=O)N1Cc2[nH]nc(COc3cccnc3)c2C1` | 3.273 | 2.151 | 4.425 | -52.91 |
| `CCCc1nc(C)cc(N2CCC3(CCC(=O)N(C4CC4)C3)CC2)n1` | -5.971 | 1.163 | -42.62 | -0.3298 |
| `CC(C)(C)[S+]([O-])CCNC(=O)c1csc(NC2CC2)n1` (stereo not shown) | -0.7646 | 0.5952 | -7.527 | -59.41 |
| `CC1=N[C@@]2(CC[C@@H]3CN(C(=O)NCc4cccc(F)c4)C[C@@H]32)C(=O)N1` | - | 9.244 | 10.09 | - |
| `CCOC1COC2(CCN(Cc3ccc(F)cc3)CC2)C1` (stereo not shown) | - | 3.883 | 9.615 | - |